# Reference: the supplement of paper PMC10727501
# Structures can show the parent of a compound that is named as a salt. Some of the results follow. Single values are uncertain here, since repeats match poorly.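 Free-swimming zebrafish larvae were scored for O-bend response probability to dark flashes (naive: first five; training: remaining flashes of four 60-flash blocks; test: later 60-flash block) and for turning toward alternating leftward/rightward LED motion (OMR). Six treated larvae were compared with sixty 0.1% DMSO controls; |SSMD|≥2 defined a hit.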
# Key:
# Settings in all cases: 10 µM; pre-incubation: 30-90 min
# [1] = system: Danio rerio larvae (5 dpf, TLF); assay: OMR-Perf (SSMD vs DMSO vehicle); higher = higher than vehicle (e.g. higher dark-flash O-bend response probability, or better optomotor performance)
# [2] = system: Danio rerio larvae (5 dpf, TLF); assay: Prob-Test (SSMD vs DMSO vehicle); higher = higher than vehicle (e.g. higher dark-flash O-bend response probability, or better optomotor performance)
# [3] = system: Danio rerio larvae (5 dpf, TLF); assay: Prob-Naive (SSMD vs DMSO vehicle); higher = higher than vehicle (e.g. higher dark-flash O-bend response probability, or better optomotor performance)
# [4] = system: Danio rerio larvae (5 dpf, TLF); assay: Prob-Train (SSMD vs DMSO vehicle); higher = higher than vehicle (e.g. higher dark-flash O-bend response probability, or better optomotor performance)
SMILES,OMR-Perf [1],Prob-Test [2],Prob-Naive [3],Prob-Train [4]
CC(C)(O)CC[C@@H](O)[C@](C)(O)[C@@H]1CC[C@@]2(O)C3=CC(=O)[C@@H]4C[C@@H](O)[C@@H](O)C[C@]4(C)[C@@H]3CC[C@]12C [20-Hydroxyecdysone],0.12,-0.356,0.146,0.116
Cl.c1ccc([C@H]2CN3CCSC3=N2)cc1 [(-)-Tetramisole],0.782,0.742,-0.0794,0.883
C=CC(=O)Nc1cc2c(Nc3ccc(F)c(Cl)c3)ncnc2cc1OCCCN1CCOCC1 [Canertinib (CI-1033)],-0.58,-1.14,-0.115,-0.837
COc1ccc(-c2cc(=O)c3c(OC)c(OC)c(OC)c(OC)c3o2)cc1OC [Nobiletin],-0.421,-1.66,-1.07,-1.73
O=c1oc2c(O)c(O)cc3c(=O)oc4c(O)c(O)cc1c4c23 [Ellagic acid],-0.689,-0.86,0.134,-0.443
CNC(=O)c1ccc2cc(C3(O)CCn4cncc43)ccc2c1 (stereo not given) [TAK-700 (Orteronel)],-0.701,-0.833,0.587,-0.463
Nc1ccc(-c2ccc3ncc4ccc(=O)n(-c5cccc(C(F)(F)F)c5)c4c3c2)cn1 [Torin 2],-0.627,-0.414,0.0457,0.0422
CC[C@]1(O)C[C@@H]2C[N@](CCc3c([nH]c4ccccc34)[C@@](C(=O)OC)(c3cc4c(cc3OC)N(C)[C@@H]3C45CCN4CC=C[C@](CC)([C@H]45)[C@H](OC(C)=O)[C@]3(O)C(=O)OC)C2)C1 (stereo not given in full) [Vinblastine],0.329,-0.313,0.121,0.00612
Oc1ccc(Nc2nc(-c3ccc(Cl)cc3)cs2)cc1,-0.969,-0.094,-0.332,-1.43
CC(S)C(=O)NCC(=O)O (stereo not given) [Tiopronin],1.3,0.634,0.285,0.174
Cc1ccc(NCCCc2ccccc2)c(N)c1,-0.135,0.0841,-0.452,-0.109
CCN(CC)C(=O)/C(C#N)=C/c1cc(O)c(O)c([N+](=O)[O-])c1 [Entacapone],-0.236,-0.0896,-0.445,-0.0674
CC[C@H]1OC(=O)C[C@@H](O)[C@H](C)[C@@H](O[C@@H]2O[C@@H](C)[C@@H](O)[C@H](N(C)C)[C@H]2O)[C@@H](CCN2C[C@H](C)C[C@@H](C)C2)C[C@@H](C)C(=O)/C=C/C(C)=C/[C@H]1CO[C@@H]1O[C@@H](C)[C@@H](O)[C@@H](OC)[C@H]1OC [Tilmicosin],0.0127,-0.225,-0.181,-0.727
C[N+](C)(C)CCOC(=O)CCC(=O)OCC[N+](C)(C)C.O.O.[Cl-].[Cl-] [Succinylcholine Chloride Dihydrate],-0.632,-0.308,0.0516,-0.949
O=c1ncnc2[nH][nH]cc1-2 [Allopurinol],-0.115,0.455,0.357,0.418
CCCc1cc(C)[nH]c(=O)c1CNC(=O)c1cc(-c2ccnc(N3CCN(C)CC3)c2)cc2c1cnn2C(C)C,-0.491,-0.474,0.146,-0.281
CCCSc1nc(N[C@@H]2C[C@@H]2c2ccc(F)c(F)c2)c2nnn([C@@H]3C[C@H](OCCO)[C@H](O)[C@H]3O)c2n1 [Ticagrelor],0.401,0.0937,-0.367,-0.168
Cc1cc(/N=N/c2ccc(S(=O)(=O)Nc3ccccn3)cc2)c(N)cc1O,-0.289,-0.00536,0.146,-0.238
O=c1cc(N2CCOCC2)oc2c1ccc1ccccc12,0.773,0.223,0.538,0.0366
O=C(O)/C=C\C(=O)O.O=C(c1ccc(OCCCc2c[nH]cn2)cc1)C1CC1 [Ciproxifan],-0.39,-0.0521,-0.11,0.0792
COc1ccc2c(c1)c(CC(=O)N1CCOCC1)c(C)n2C(=O)c1ccc(Cl)cc1,-0.468,-1.52,-1.08,-3.2
Cl.Cl.OCCOCCN1CCN(C(c2ccccc2)c2ccc(Cl)cc2)CC1 (stereo not given) [Hydroxyzine 2HCl],-0.237,-0.33,0.389,-0.0576
O.O.O=c1c(O)c(-c2ccc(O)c(O)c2)oc2cc(O)cc(O)c12 [Quercetin Dihydrate],-0.342,-0.304,-0.0925,-0.242
COc1ccc(S(=O)(=O)N(C(C)=O)c2ccccc2/C=C/c2cc[n+]([O-])cc2)cc1,-0.0279,0.111,-0.102,-0.445
CN1CCCC(n2nc(Cc3ccc(Cl)cc3)c3ccccc3c2=O)CC1.Cl (stereo not given) [Azelastine HCl],-0.357,-0.762,0.374,-0.474

SMILES,OMR-Perf [1],Prob-Test [2],Prob-Naive [3],Prob-Train [4]
CCOc1nc2cccc(C(=O)OC(C)OC(=O)OC3CCCCC3)c2n1Cc1ccc(-c2ccccc2-c2nnn[nH]2)cc1 (stereo not given) [Candesartan Cilexetil],0.482,-0.341,0.506,-0.0192
COc1ccc(-n2c(C)c([N+](=O)[O-])c3ccc(O)cc32)cc1,0.259,-0.218,-0.759,-1.22
CCN(CC)CCCC(C)Nc1ccnc2cc(Cl)ccc12.O=P(O)(O)O.O=P(O)(O)O (stereo not given) [Chloroquine Phosphate],0.0412,-0.388,0.338,-0.0444
CN1CCN(c2cc3c(cc2F)c(=O)c(C(=O)O)cn3-c2ccc(F)cc2)CC1 [Difloxacin HCl],-0.24,-0.191,0.444,0.272
CN(C)CC[C@H](CSc1ccccc1)Nc1ccc(S(=O)(=O)NC(=O)c2ccc(N3CCN(Cc4ccccc4-c4ccc(Cl)cc4)CC3)cc2)cc1[N+](=O)[O-],0.194,-0.131,-0.746,-0.189
CCCNC(C)C(=O)Nc1ccccc1C (stereo not given) [Prilocaine],0.238,-0.221,0.184,0.259
Cc1cn2cc(C(=O)N(C)CCO)cc(N[C@@H]3CCOc4cccc(C)c43)c2n1,-0.532,0.336,-0.592,0.351
CS(=O)(=O)OCCCCOS(C)(=O)=O [Busulfan],0.43,0.287,-0.123,-0.172
CC(C)(C)c1cnc(CSc2cnc(NC(=O)C3CCNCC3)s2)o1,-0.264,-0.564,0.568,-0.293
COc1ccc(CCc2nc3cc(-c4c(C)noc4C)ccc3n2C[C@H](C)N2CCOCC2)cc1Cl,-0.748,-1.75,-0.842,-1.87
Cn1cnc2c(F)c(Nc3ccc(Br)cc3F)c(C(=O)NOCCO)cc21,-0.22,-0.198,0.0457,-0.154
Cc1[nH]c2ccccc2c1CCNCc1ccc(/C=C/C(=O)NO)cc1 [Panobinostat (LBH589)],-0.241,0.188,0.0243,-0.098
CCOc1ccc(NC(C)=O)cc1 [Phenacetin],-0.113,-0.329,0.131,-0.0759
Cl.N=C(N)NC(=O)c1nc(Cl)c(N)nc1N [Amiloride HCl],-0.333,-0.421,-0.317,-0.686
COC(=O)N[C@H](C(=O)N1CCC[C@H]1c1ncc(-c2ccc(-c3ccc(-c4cnc([C@@H]5CCCN5C(=O)[C@@H](NC(=O)OC)C(C)C)[nH]4)cc3)cc2)[nH]1)C(C)C,-0.642,0.0802,0.464,-0.0817
CN(C)CCCSC(=N)N.Cl.Cl [Dimaprit 2HCl],-0.151,0.419,0.457,0.178
O=C1N=C([O-])NC1(c1ccccc1)c1ccccc1.[Na+] [Phenytoin sodium],-0.625,0.591,-0.435,0.435
CCN(CC)Cc1ccc2cc(COC(=O)Nc3ccc(C(=O)NO)cc3)ccc2c1.Cl.O [Givinostat (ITF2357)],0.321,0.289,0,-0.34
CC(C)NCC(O)COc1ccc(COCCOC(C)C)cc1.O=C(O)/C=C/C(=O)O (stereo not given) [Bisoprolol fumarate],-0.493,0.109,0.129,-0.399
NC(CO)(CO)CO [Trometamol],0.16,0.187,0.0839,-0.143
CN1CCC(=C2c3ccccc3CCc3sccc32)CC1.O=C(O)CC(O)C(=O)O [Pizotifen Malate],-0.746,-0.94,-0.605,-1.53
CC(=O)c1cc([N+](=O)[O-])c(Sc2ccc(F)cc2F)s1,-0.675,-1.41,-0.714,-0.214
O=C(c1ccc(Nc2nccc(-c3cc4ccccc4s3)n2)cc1)N1CCC(N2CCCC2)CC1 [IKK-16 (IKK Inhibitor VII)],0.639,-1.21,-0.202,-0.374
CCN[C@@H]1C[C@@H](N)[C@@H](O[C@H]2OC(CN)=CC[C@@H]2N)[C@H](O)[C@H]1OC1OC[C@](C)(O)[C@H](NC)[C@@H]1O.CCN[C@@H]1C[C@@H](N)[C@@H](O[C@H]2OC(CN)=CC[C@@H]2N)[C@H](O)[C@H]1OC1OC[C@](C)(O)[C@H](NC)[C@@H]1O.O=S(=O)(O)O.O=S(=O)(O)O.O=S(=O)(O)O.O=S(=O)(O)O.O=S(=O)(O)O (stereo not given in full) [Netilmicin Sulfate],-0.277,0.101,-0.139,-0.209
CC(C)n1nc(-c2ccc3oc(N)nc3c2)c2c(N)ncnc21,-0.0926,0.467,0.538,0.874

# Part of the list above, showing only Prob-Test [2], Prob-Train [4] and Prob-Naive [3].
SMILES | Prob-Test [2] | Prob-Train [4] | Prob-Naive [3]
NC(CO)(CO)CO [Trometamol] | 0.187 | -0.143 | 0.0839
CN1CCC(=C2c3ccccc3CCc3sccc32)CC1.O=C(O)CC(O)C(=O)O [Pizotifen Malate] | -0.94 | -1.53 | -0.605
CC(=O)c1cc([N+](=O)[O-])c(Sc2ccc(F)cc2F)s1 | -1.41 | -0.214 | -0.714
